Source: the supplement of paper PMC12819154, “High-throughput peptide-centric local stability assay extends protein–ligand identification to membrane proteins, tissues and bacteria” (Nature Structural & Molecular Biology, 2025)
The other results are listed elsewhere or left out. Most values lie at the level of the controls, where differences are scatter.

Chains of the proteins cited; added tags and fusions are not shown. Lines headed by an entry give the natural chain unless they say otherwise; changes in a name come on top.
UniProt Q15154: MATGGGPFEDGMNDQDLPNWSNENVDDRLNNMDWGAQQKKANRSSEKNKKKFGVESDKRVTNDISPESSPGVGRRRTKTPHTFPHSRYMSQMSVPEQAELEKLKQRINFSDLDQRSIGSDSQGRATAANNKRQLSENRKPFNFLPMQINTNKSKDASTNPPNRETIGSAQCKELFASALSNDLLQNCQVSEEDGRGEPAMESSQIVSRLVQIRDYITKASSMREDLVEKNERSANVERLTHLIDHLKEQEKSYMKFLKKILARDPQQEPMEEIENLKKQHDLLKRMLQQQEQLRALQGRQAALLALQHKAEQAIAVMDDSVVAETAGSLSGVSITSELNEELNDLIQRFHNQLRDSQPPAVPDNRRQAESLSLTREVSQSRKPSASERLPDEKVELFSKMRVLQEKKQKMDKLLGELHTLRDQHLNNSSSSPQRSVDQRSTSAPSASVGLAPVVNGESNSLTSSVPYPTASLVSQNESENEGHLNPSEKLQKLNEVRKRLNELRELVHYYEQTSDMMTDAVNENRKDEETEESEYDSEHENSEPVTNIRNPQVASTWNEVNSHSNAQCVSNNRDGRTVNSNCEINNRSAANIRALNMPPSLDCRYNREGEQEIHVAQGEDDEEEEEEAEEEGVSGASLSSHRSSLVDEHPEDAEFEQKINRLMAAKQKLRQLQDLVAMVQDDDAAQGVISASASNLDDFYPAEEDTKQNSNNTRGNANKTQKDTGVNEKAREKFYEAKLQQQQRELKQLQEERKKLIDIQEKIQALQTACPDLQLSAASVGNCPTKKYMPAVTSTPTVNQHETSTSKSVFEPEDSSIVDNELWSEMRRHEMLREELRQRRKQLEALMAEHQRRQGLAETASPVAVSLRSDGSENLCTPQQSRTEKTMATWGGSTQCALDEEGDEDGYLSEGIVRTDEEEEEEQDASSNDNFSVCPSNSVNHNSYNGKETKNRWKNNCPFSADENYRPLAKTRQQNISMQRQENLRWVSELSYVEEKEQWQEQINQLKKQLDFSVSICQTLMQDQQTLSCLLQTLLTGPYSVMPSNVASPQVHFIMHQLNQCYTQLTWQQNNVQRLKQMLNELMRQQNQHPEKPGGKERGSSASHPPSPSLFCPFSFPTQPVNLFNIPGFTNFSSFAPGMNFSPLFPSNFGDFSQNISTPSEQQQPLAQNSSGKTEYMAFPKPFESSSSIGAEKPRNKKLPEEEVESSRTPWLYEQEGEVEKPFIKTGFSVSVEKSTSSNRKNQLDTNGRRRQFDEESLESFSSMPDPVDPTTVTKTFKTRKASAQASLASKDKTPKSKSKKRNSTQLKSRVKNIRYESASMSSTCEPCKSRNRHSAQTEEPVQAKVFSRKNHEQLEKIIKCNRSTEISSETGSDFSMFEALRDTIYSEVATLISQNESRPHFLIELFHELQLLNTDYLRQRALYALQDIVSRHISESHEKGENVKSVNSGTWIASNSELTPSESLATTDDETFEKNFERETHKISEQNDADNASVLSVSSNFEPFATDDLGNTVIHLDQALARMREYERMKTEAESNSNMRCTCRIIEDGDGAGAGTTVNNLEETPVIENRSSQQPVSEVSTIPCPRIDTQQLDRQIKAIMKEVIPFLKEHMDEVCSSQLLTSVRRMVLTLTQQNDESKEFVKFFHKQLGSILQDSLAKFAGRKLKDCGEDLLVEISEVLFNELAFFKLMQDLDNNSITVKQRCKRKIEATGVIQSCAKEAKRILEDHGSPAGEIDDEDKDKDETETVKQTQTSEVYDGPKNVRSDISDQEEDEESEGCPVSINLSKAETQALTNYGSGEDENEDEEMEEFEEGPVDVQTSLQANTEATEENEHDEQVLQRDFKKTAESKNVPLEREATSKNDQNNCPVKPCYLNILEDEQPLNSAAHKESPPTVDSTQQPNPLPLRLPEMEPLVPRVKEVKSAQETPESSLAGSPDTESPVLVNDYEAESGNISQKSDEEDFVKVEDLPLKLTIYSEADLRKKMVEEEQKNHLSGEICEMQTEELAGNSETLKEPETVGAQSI
UniProt Q16610: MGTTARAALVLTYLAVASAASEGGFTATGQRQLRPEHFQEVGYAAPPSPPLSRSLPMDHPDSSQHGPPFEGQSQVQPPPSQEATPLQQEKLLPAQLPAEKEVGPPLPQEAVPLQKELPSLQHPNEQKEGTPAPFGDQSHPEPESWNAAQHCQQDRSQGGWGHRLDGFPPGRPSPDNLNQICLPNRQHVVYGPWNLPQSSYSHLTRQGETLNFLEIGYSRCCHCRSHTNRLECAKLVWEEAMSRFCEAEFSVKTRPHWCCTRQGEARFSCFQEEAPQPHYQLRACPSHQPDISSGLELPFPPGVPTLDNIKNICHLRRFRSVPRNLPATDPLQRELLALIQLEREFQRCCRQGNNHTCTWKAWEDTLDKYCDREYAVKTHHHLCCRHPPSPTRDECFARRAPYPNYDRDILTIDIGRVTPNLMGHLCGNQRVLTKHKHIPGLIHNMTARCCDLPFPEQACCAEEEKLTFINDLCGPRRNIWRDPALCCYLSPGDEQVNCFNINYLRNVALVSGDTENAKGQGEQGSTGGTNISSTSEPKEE
UniProt Q15843, whole entry: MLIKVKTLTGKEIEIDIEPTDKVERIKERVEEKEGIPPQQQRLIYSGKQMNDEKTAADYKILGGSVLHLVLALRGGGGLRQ
UniProt Q16630, whole entry: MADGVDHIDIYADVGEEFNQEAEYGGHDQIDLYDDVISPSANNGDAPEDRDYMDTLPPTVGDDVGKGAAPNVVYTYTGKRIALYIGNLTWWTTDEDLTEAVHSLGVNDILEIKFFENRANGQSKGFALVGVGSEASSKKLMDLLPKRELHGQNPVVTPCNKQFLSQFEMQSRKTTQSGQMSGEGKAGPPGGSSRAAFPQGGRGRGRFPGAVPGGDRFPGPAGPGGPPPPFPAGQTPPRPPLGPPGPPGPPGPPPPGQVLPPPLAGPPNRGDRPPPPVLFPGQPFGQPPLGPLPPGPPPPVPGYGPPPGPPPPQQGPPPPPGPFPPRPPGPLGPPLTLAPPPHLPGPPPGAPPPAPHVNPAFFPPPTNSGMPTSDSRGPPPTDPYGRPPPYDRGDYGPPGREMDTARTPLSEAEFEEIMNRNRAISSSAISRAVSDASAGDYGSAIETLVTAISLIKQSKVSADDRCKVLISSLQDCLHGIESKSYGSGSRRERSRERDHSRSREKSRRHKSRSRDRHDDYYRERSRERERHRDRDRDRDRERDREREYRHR
UniProt Q2KHR2: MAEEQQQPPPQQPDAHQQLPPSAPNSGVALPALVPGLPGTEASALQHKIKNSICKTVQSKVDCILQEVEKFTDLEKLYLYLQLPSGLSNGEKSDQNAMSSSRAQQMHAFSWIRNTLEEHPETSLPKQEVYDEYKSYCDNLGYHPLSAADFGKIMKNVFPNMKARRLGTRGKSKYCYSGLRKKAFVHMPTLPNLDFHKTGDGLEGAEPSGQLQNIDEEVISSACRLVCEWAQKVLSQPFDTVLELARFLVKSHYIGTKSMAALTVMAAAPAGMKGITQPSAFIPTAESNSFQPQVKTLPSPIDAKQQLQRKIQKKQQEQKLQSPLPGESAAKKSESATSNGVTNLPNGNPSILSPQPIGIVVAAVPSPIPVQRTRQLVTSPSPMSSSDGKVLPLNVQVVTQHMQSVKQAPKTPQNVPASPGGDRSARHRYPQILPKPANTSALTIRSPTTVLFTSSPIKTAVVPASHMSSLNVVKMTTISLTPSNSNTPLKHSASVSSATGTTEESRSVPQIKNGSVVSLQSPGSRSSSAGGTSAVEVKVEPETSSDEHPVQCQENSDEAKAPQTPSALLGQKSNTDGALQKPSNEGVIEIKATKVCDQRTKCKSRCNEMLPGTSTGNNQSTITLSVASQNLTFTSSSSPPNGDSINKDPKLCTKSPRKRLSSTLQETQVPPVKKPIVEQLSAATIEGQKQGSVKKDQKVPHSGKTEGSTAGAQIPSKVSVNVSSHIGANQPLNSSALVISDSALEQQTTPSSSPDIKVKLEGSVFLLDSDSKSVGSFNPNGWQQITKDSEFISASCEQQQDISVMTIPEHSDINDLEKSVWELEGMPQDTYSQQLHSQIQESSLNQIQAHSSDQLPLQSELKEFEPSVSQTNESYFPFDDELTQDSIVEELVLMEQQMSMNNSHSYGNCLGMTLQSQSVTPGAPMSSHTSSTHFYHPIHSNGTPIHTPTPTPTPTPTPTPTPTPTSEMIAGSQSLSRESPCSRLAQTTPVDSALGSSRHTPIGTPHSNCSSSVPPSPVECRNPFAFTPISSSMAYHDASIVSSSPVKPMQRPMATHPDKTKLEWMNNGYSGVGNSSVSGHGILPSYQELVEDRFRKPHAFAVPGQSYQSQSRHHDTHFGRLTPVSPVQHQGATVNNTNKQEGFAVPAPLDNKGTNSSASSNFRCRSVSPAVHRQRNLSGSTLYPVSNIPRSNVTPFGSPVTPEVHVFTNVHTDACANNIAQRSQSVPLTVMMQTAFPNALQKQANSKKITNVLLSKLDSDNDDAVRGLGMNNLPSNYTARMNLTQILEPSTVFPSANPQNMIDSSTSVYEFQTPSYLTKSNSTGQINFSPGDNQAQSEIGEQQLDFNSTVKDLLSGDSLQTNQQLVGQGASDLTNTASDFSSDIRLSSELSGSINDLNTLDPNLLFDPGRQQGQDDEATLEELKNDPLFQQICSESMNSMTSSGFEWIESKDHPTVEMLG
UniProt Q15286: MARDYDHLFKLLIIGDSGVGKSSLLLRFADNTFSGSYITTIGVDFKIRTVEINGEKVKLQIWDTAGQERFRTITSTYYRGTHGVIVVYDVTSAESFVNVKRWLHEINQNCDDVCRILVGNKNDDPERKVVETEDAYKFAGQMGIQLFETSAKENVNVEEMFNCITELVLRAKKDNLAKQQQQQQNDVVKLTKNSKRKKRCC
UniProt Q494X3: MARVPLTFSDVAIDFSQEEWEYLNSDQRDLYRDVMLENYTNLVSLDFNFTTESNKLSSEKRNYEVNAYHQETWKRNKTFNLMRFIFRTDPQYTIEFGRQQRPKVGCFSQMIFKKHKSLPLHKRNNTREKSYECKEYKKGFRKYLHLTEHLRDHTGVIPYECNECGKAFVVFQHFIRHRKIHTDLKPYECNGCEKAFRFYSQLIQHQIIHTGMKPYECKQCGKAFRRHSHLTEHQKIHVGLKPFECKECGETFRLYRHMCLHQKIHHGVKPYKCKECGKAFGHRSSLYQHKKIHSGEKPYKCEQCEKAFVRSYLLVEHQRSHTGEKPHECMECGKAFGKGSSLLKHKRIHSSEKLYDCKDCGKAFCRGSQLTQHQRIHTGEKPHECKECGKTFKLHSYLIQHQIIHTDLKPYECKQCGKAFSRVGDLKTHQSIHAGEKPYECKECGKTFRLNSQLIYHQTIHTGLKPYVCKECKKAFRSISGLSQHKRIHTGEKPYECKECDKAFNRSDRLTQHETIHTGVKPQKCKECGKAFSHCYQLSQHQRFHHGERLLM
UniProt Q2M389: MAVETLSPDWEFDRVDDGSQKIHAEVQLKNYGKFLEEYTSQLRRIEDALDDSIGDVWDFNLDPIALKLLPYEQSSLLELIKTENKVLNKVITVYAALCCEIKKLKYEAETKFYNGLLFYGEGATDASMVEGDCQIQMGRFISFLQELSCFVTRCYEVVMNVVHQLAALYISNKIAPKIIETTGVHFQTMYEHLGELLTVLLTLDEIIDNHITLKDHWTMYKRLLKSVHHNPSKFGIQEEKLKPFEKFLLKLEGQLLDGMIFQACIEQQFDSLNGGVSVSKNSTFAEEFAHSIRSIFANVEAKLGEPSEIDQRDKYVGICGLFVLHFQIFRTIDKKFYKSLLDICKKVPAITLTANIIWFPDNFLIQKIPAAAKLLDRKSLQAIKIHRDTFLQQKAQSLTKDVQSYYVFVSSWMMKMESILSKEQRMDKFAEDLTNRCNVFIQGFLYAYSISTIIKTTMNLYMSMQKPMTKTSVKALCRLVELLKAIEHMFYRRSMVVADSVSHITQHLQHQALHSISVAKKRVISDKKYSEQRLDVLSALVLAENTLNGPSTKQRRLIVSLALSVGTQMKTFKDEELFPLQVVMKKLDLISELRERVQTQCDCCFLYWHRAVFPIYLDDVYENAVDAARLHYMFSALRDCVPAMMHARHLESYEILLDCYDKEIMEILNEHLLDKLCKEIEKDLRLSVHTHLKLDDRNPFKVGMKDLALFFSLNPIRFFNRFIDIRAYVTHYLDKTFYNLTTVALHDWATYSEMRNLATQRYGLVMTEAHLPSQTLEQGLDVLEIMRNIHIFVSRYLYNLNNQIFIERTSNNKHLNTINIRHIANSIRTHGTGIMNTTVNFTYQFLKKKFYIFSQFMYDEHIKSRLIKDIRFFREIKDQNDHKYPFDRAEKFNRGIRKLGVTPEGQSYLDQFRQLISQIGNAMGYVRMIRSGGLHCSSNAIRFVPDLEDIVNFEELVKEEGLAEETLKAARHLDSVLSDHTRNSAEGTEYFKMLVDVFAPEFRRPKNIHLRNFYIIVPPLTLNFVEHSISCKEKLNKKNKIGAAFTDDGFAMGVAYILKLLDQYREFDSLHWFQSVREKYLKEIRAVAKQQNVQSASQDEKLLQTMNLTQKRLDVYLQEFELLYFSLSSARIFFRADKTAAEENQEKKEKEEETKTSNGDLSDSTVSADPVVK

What follows are targets tested with CN[C@@H]1C[C@H]2O[C@@](C)([C@@H]1OC)n1c3ccccc3c3c4c(c5c6ccccc6n2c5c31)C(=O)NC4 [staurosporine] (assay: log2 fold change of tryptic peptide abundance, ligand vs vehicle (limited proteolysis) (log2 ratio); higher = more trypsin-susceptible (destabilized)). Conditions: ligand concentration: 20 uM; sample: K562 cleared lysate; digestion: 4 min, 22 C (HT-PELSA RT4min, Orbitrap Astral).

**Q.** How did the log2 fold change turn out when “UniProt Q3B7T1 (peptide sequence: VLADLHYSK, peptide start residue: 1053)” was run?
**A.** -0.609

**Q.** Which log2 fold change does the source give for “GUK1 (peptide sequence: RLLQEHSGIFGFSVSHTTR, peptide start residue: 23) (UniProt Q16774)” here?
**A.** 0.519

**Q.** With “PEA15 (peptide sequence: DIIRQPSEEEIIK, peptide start residue: 110) (UniProt Q15121)” as the target, how does the log2 fold change read?
**A.** -0.111

**Q.** “TAF5 (peptide sequence: GNETMLDFR, peptide start residue: 293) (UniProt Q15542)” was tested. Which log2 fold change did it give?
**A.** -0.28

**Q.** “SLC9A3R2 (peptide sequence: LVEVNGVNVEGETHHQVVQR, peptide start residue: 56) (UniProt Q15599)” was tested. Which log2 fold change did it give?
**A.** -0.226

**Q.** How did the log2 fold change turn out when “NAB2 (peptide sequence: SSVKVEAEASRQ, peptide start residue: 514) (UniProt Q15742)” was run?
**A.** -0.951

**Q.** Which log2 fold change does the source give for “TOMM34 (peptide sequence: NRVPSAGDVEK, peptide start residue: 182) (UniProt Q15785)” here?
**A.** 0.133

**Q.** Which log2 fold change does the source give for “PCM1 (peptide sequence: LPDEKVELFSK, peptide start residue: 389) (UniProt Q15154)” here?
**A.** -0.187

**Q.** How did the log2 fold change turn out when “CCDC57 (peptide sequence: EVDQVHLEVLELR, peptide start residue: 698) (UniProt Q2TAC2)” was run?
**A.** -0.0848

**Q.** Which log2 fold change does the source give for “ECM1 (peptide sequence: QLRPEHFQEVGYAAPPSPPLSR, peptide start residue: 32) (UniProt Q16610)” here?
**A.** -0.205

**Q.** With “UniProt Q32P28 (peptide sequence: DLETQPHMQEFR, peptide start residue: 199)” as the target, how does the log2 fold change read?
**A.** 0.302

**Q.** For “EZH2 (peptide sequence: YSQADALK, peptide start residue: 728) (UniProt Q15910)”, which log2 fold change is on record?
**A.** -0.203

**Q.** “MRPL23 (peptide sequence: NVVYPLYR, peptide start residue: 4) (UniProt Q16540)” was tested. Which log2 fold change did it give?
**A.** 0.171

**Q.** Which log2 fold change does the source give for “UniProt Q16760 (peptide sequence: SETELLLSGK, peptide start residue: 1050)” here?
**A.** 0.144

**Q.** For “UniProt Q16143 (peptide sequence: TKQGVTEAAEK, peptide start residue: 22)”, which log2 fold change is on record?
**A.** 0.161

**Q.** “UniProt Q15365 (peptide sequence: QQSHFAMMHGGTGFAGIDSSSPEVK, peptide start residue: 244)” was tested. Which log2 fold change did it give?
**A.** -0.11

**Q.** How did the log2 fold change turn out when “TGIF1 (peptide sequence: DWLYEHR, peptide start residue: 181) (UniProt Q15583)” was run?
**A.** 0.081

**Q.** How did the log2 fold change turn out when “NEDD8 (peptide sequence: QMNDEKTAADYK, peptide start residue: 49) (UniProt Q15843)” was run?
**A.** -0.272

**Q.** Which log2 fold change does the source give for “VMA21 (peptide sequence: AALNALQPPEFR, peptide start residue: 7) (UniProt Q3ZAQ7)” here?
**A.** 0.131

**Q.** “JMJD1C (peptide sequence: YVKDDKVNR, peptide start residue: 1607) (UniProt Q15652)” was tested. Which log2 fold change did it give?
**A.** 0.787

**Q.** For “ZNF77 (peptide sequence: AFICPSSFR, peptide start residue: 220) (UniProt Q15935)”, which log2 fold change is on record?
**A.** -0.261

**Q.** How did the log2 fold change turn out when “UniProt Q15369 (peptide sequence: EIPSHVLSK, peptide start residue: 64)” was run?
**A.** 0.321

**Q.** “CPSF6 (peptide sequence: RELHGQNPVVTPCNK, peptide start residue: 147) (UniProt Q16630)” was tested. Which log2 fold change did it give?
**A.** -0.251

**Q.** For “SPA17 (peptide sequence: TNSLQNEEKEENK, peptide start residue: 139) (UniProt Q15506)”, which log2 fold change is on record?
**A.** -0.161

**Q.** With “SF1 (peptide sequence: NIEKECNAK, peptide start residue: 166) (UniProt Q15637)” as the target, how does the log2 fold change read?
**A.** 0.136

**Q.** How did the log2 fold change turn out when “UniProt Q15370 (peptide sequence: LYKDDQLLDDGK, peptide start residue: 44)” was run?
**A.** -0.409

**Q.** With “UniProt Q3KQV3 (peptide sequence: HNKCCESGDAFNNK, peptide start residue: 253)” as the target, how does the log2 fold change read?
**A.** -0.666

**Q.** With “RFX7 (peptide sequence: SNTDGALQKPSNEGVIEIK, peptide start residue: 476) (UniProt Q2KHR2)” as the target, how does the log2 fold change read?
**A.** 0.571

**Q.** For “UniProt Q15286 (peptide sequence: TVEINGEKVK, peptide start residue: 49)”, which log2 fold change is on record?
**A.** 0.294

**Q.** With “UniProt Q494X3 (peptide sequence: GSQLTQHQR, peptide start residue: 375)” as the target, how does the log2 fold change read?
**A.** 0.446

**Q.** With “UniProt Q2M3D2 (peptide sequence: VVANLLFQELQPHFNK, peptide start residue: 170)” as the target, how does the log2 fold change read?
**A.** 0.22

**Q.** With “HKDC1 (peptide sequence: MLPTFVR, peptide start residue: 63) (UniProt Q2TB90)” as the target, how does the log2 fold change read?
**A.** 0.179

**Q.** With “GEN1 (peptide sequence: DLPGIPLQNESR, peptide start residue: 722) (UniProt Q17RS7)” as the target, how does the log2 fold change read?
**A.** 0.171

**Q.** “SS18 (peptide sequence: MLDDNNHLIQCIMDSQNKGK, peptide start residue: 24) (UniProt Q15532)” was tested. Which log2 fold change did it give?
**A.** 0.137

**Q.** For “UniProt Q2M389 (peptide sequence: LDDRNPFKVGMK, peptide start residue: 694)”, which log2 fold change is on record?
**A.** 0.916

**Q.** Which log2 fold change does the source give for “MLF2 (peptide sequence: DSDSGLEQMSIGHHIR, peptide start residue: 143) (UniProt Q15773)” here?
**A.** -0.098
